Source: PubChem BioAssay AID1688 (National Center for Advancing Translational Sciences (NCATS), 2009)
Hit rate of the full screen: of about 220,000 compounds, about 2,400 (1.1%) were called active. The inconclusive results got no clear call from the source; some entries with a clear call stand among them for comparison. The call rests on the fitted dose curve; in most records, active means well fitted inhibition curve with a large enough effect; inconclusive means small, poorly fitted or top-dose-only effect, or effect the other way; inactive means no such curve, though single readings can be large or run the other way. Potencies of inconclusive entries are doubtful fits and often do not repeat.

Experiment: qHTS Multiplex Assay to Identify Dual Action Probes in a Cell Model of Huntington: Aggregate Formation (GFP); further: nearly all actives have a fitted effect of over 60% in size
Details: PC12 HttQ103-GFP aggregates, Acumen cytometry, 40 h; activity change, negative = inhibition: at 46.1 µM (top of the series) unless noted
Outline: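 Ecdysone-promoter PC12 model expressing HTT exon 1 Q103 fused to GFP, induced by tebufenozide at 100 nM final. Compounds titrated; aggregates sized 1–25 µm scored on a 488 nm laser cytometer.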
On the % scale 0 is the no-effect control and ±100 the full control effect; potency means the concentration at half of the fitted maximal effect.

Row | Structure (SMILES) | Potency | activity change, negative = inhibition
1 | O=C1/C(=C/c2cccnc2)SC(=S)N1C1CCS(=O)(=O)C1 (centres undefined) | inconclusive: 15.8 µM [inhibitor, single point] | –
2 | Cc1cc(C)c(C(=O)Cn2cnc3cc([N+](=O)[O-])ccc3c2=O)cc1C | inconclusive: 5.62 µM [activator, full curve] | –
3 | O=C1C(Cl)=C(NCCN2CCCCC2)C(=O)c2ccccc21 | inconclusive: 35.5 µM [inhibitor, single point] | –
4 | O=[N+]([O-])c1cc2c(cc1/C=N/NS(=O)(=O)c1ccc(Br)cc1)OCO2 | – | inactive: 25.2%
5 | O=C(O)c1cccc(NC(=S)NC(=O)C(c2ccccc2)c2ccccc2)c1 | inconclusive: 11.2 µM [inhibitor, partial curve] | –
6 | S=c1nc2ccccc2c2nc(-c3ccccc3)[nH]n12 | inconclusive: 15.8 µM [inhibitor, single point] | –
7 | CN(CC(=O)Nc1nc2ccc(F)cc2s1)S(=O)(=O)c1ccc(Cl)cc1 | inconclusive: 25.1 µM [inhibitor, single point] | –
8 | Cc1nc2ccccn2c1C(=O)/C=C/c1ccc(F)cc1 | inconclusive: 14.1 µM [activator, partial curve] | –
9 | CC(C)(C)n1nnnc1C(c1ccncc1)N1CCN(C2CCCCC2)CC1 (centres undefined) | – | inactive: 2.7%
10 | C/C(=N/Nc1nc(C)cc(-c2ccccc2)n1)c1ccco1 | inconclusive: 22.4 µM [inhibitor, single point] | –
11 | CCSc1nnc(-c2ccc(Cl)cc2Cl)o1 | – | inactive: 2.16%
12 | N#CCCn1cc(C(=O)Nc2ccc(C(=O)O)cc2)c(-c2cccs2)n1 | inconclusive: 0.794 µM [inhibitor, full curve, poor fit] | –
13 | O=C(N/N=C/c1ccccn1)c1cc(-c2ccccc2)nc2ccccc12 | inconclusive: 3.16 µM [activator, single point] | –
14 | Cc1cccnc1N(C(=O)Nc1cccc(Cl)c1)C1=NCC(C)(C)S1 | – | inactive: -13.2%
15 | O=C(N/N=C/c1cccn1-c1cccc(C(=O)O)c1)Nc1ccccc1 | inconclusive: 35.5 µM [activator, single point] | –
16 | CCCCC1=CC2=C(c3ccco3)C(=O)C(C)(OC(=O)c3ccc(OC)cc3)C(=O)C2=CN1CCOC (centres undefined) | – | inactive: 3.59% [at 9.22 µM]
17 | Cc1onc(-c2ccccc2)c1C(=O)Nc1sc2c(c1C#N)CCC(C)C2 (centres undefined) | inconclusive: 22.4 µM [inhibitor, single point] | –
18 | Cc1ccc(NC(=S)NNc2ncc(C(F)(F)F)cc2Cl)c(C)c1 | inconclusive: 35.5 µM [inhibitor, single point] | –
19 | COc1cc(/C=N/NC(=O)CN2CCCCC2)ccc1OCc1ccc(Br)cc1 | – | inactive: -15.8%
20 | CC1(C)CNC(=O)c2sc(N3CCCCC3)nc2C1 | – | inactive: -20.5%
21 | O=C(NCCn1cc(SCc2ccc(F)cc2)c2ccccc21)c1ccccc1F | inconclusive: 20 µM [inhibitor, single point] | –
22 | O=c1[nH]c(-c2ccccn2)nc2sc(-c3ccccc3)cc12 | inconclusive: 31.6 µM [inhibitor, single point] | –
23 | CC(=O)Nc1sc(N/N=C\c2ccco2)nc1-c1cccs1 | – | inactive: 2.59%
24 | Cc1ccc(CCNC(=O)C2CCC(=O)N2Cc2cccnc2)cc1 (centres undefined) | inconclusive: 6.31 µM [activator, partial curve] | –
25 | Cc1cc(C(=O)NCc2cccnc2)no1 | – | inactive: -8.97%

Excerpt, nos. 4–6
Row | Structure (SMILES) | Potency | activity change, negative = inhibition
4 | O=[N+]([O-])c1cc2c(cc1/C=N/NS(=O)(=O)c1ccc(Br)cc1)OCO2 | – | inactive: 25.2%
5 | O=C(O)c1cccc(NC(=S)NC(=O)C(c2ccccc2)c2ccccc2)c1 | inconclusive: 11.2 µM [inhibitor, partial curve] | –
6 | S=c1nc2ccccc2c2nc(-c3ccccc3)[nH]n12 | inconclusive: 15.8 µM [inhibitor, single point] | –

Carrying on.

Row | Structure (SMILES) | Potency | activity change, negative = inhibition
26 | Cc1ccc(SCC(=O)N2CC(C)OC(C)C2)cc1 (centres undefined) | inconclusive: 3.55 µM [inhibitor, single point] | –
27 | CC(C)NC(=O)COC(=O)c1cc(F)c(F)cc1Cl | – | inactive: -20.5%
28 | CCCCCc1ccc(S(=O)(=O)NCCc2ccncc2)cc1 | active: 11.2 µM | –
29 | O=C(O)Cc1ccc(Oc2ncc(C(F)(F)F)cc2Cl)cc1 | – | inactive: 22.8%
30 | CCOc1ccccc1NC(=O)C1CCN(C(=O)Cc2ccccc2)CC1 | – | inactive: -14.7%
31 | C=C1CSc2nc(=O)c3c(C)c(C)sc3n21 | inconclusive: 1.26 µM [inhibitor, single point] | –
32 | O=C(CCN1CCc2ccccc2C(c2ccccc2)C1)c1ccc2c(c1)OCCO2 (centres undefined) | inconclusive: 25.1 µM [inhibitor, single point] | –
33 | O=C(CSc1ncnc2nc[nH]c12)c1ccc2ccccc2c1 | inconclusive: 35.5 µM [inhibitor, single point] | –
34 | O=c1n(Cc2ccccc2)c2cc(Cl)cnc2n1Cc1ccccc1 | inconclusive: 17.8 µM [inhibitor, single point] | –
35 | O=c1c2c(nc3c(-c4ccc(Cl)cc4)c[nH]n13)CCCC2 | active: 7.08 µM | –
36 | Cc1nc(NCCc2ccc(S(N)(=O)=O)cc2)c2c(C)c(C)sc2n1 | inconclusive: 10 µM [inhibitor, partial curve] | –
37 | CCOC(=O)c1c(-c2ccc(C)cc2C)csc1NC(=O)CSc1nnnn1C | active: 11.2 µM | –
38 | CC(Sc1nnnn1C)C(=O)Nc1ccc(Oc2ccccc2)cc1 (centres undefined) | inconclusive: 2.24 µM [inhibitor, partial curve] | –
39 | COc1ccc(CCN=C(N)NS(=O)(=O)c2ccccc2)cc1 | inconclusive: 0.316 µM [inhibitor, full curve] | –
40 | Cc1ccc2oc(=O)c3cc(C(=O)NCc4ccco4)sc3c2c1 | – | inactive: -0.399%
41 | Cc1ccc2nc(N(CCCN(C)C)C(=O)c3ccc(Br)s3)sc2c1 | inconclusive: 35.5 µM [inhibitor, single point] | –
42 | O=C(CCc1c[nH]c2ccccc12)NCC1CCCO1 (centres undefined) | – | inactive: 5.19%
43 | Cn1c(-c2ccccc2)c(C(=O)CC#N)c2ccccc21 | – | inactive: -5.45%
44 | CCN(CC)c1ccc(NC(=O)c2cncc(Br)c2)cc1 | inconclusive: 10 µM [inhibitor, partial curve, poor fit] | –
45 | O=C1c2[nH]nc(-c3ccccc3O)c2C(c2cccc(Cl)c2)N1Cc1ccco1 (centres undefined) | – | inactive: 3.27%
46 | CCN(CC)CC(=O)N1c2ccccc2CCc2ccc(NC(=O)c3cc(OC)c(OC)c(OC)c3)cc21 | – | inactive: -5.02% [at 9.22 µM]
47 | CCc1cc2c(=O)c(-c3cnn(-c4ccccc4)c3)c(C)oc2cc1OCC(=O)Nc1ccc(F)c(F)c1 | inconclusive: 17.8 µM [inhibitor, single point] | –
48 | CC(C)Oc1ccc(/C=N/NC(=O)C2CCCN2S(=O)(=O)c2ccc(Cl)cc2)cc1 (centres undefined) | – | inactive: -17.6%
49 | CSc1nc2sc3c(c2c(=O)n1C)CCC(C)C3 (centres undefined) | – | inactive: -12.3%
50 | O=C(Nc1cscc1S(=O)(=O)c1ccccc1)c1ccccc1Cl | – | inactive: 14% [at 9.22 µM]

Row | Structure (SMILES) | Potency | activity change, negative = inhibition
51 | COc1cccc(/C=N/NC(=O)c2ccc(-c3ccccc3)cc2)c1O | inconclusive: 3.16 µM [inhibitor, partial curve] | –
52 | CC1CCCCN1S(=O)(=O)c1ccc(C(=O)Nc2nnc(-c3ccccc3Cl)o2)cc1 (centres undefined) | inconclusive: 11.2 µM [inhibitor, single point] | –
53 | COc1ccc(C(=O)/C=C/C(=O)N(Cc2ccccc2)C(C(=O)NC2CCCCC2)c2ccncc2)c(O)c1 (centres undefined) | inconclusive: 22.4 µM [activator, partial curve] | –
54 | O=C(Nc1cccc(Oc2ccc3c(c2)C(=O)NC3=O)c1)c1cccs1 | inconclusive: 1.26 µM [inhibitor, single point] | –
55 | COc1ccc(OC)c(S(=O)(=O)N2CCC(C(=O)N3CCc4ccccc4C3)CC2)c1 | – | inactive: -22.2%
56 | c1ccc2c(c1)[nH]c1c(N3CCN(C4CCCCC4)CC3)ncnc12 | inconclusive: 11.2 µM [inhibitor, single point] | –
57 | Cc1nc(NC(C)c2ccccc2)c2oc3ccccc3c2n1 (centres undefined) | active: 12.6 µM | –
58 | C=C1CC2C3C=C(C)C4=CC(=O)CCC4(C)C3CCC2(C)[C@@]1(OC(C)=O)C(C)=O (some centres undefined) | – | inactive: -4.02%
59 | CCOC(=O)c1ccc(COC(=O)c2ccc3c(c2)-c2ccccc2C3=O)cc1 | – | inactive: 2.53%
60 | CCC(=O)n1nc(-c2ccccc2)nc1NCc1ccccc1 | inconclusive: 5.01 µM [inhibitor, full curve] | –
61 | N#CCCn1cc(/C=N/NC(=O)c2ccncc2)c(-c2ccccc2)n1 | – | inactive: 1.28%
62 | COc1ccc(C(C[N+](=O)[O-])c2c(C)cc3ccccn23)cc1 (centres undefined) | inconclusive: 10 µM [activator, partial curve] | –
63 | OC1C=CSc2nc3ccccc3n21 (centres undefined) | inconclusive: 35.5 µM [inhibitor, single point] | –
64 | CCO[C@@H]1OC(C(=O)Nc2ccccc2)=C[C@H](c2ccc(C(F)(F)F)cc2)[C@H]1CCCO | – | inactive: 13.9% [at 9.22 µM]
65 | COc1ccc(S(=O)(=O)Nc2ccc3ccccc3c2)cc1C | inconclusive: 11.2 µM [inhibitor, single point] | –
66 | C/C(=N/NC(=O)c1ccncc1)c1cc2ccc(O)cc2oc1=O | active: 12.6 µM | –
67 | COc1ccc(NS(=O)(=O)c2cc(S(C)(=O)=O)ccc2C)cc1 | – | inactive: 19.4%
68 | COCCNC(=O)Nc1ccc2c(c1)N(C)C(=O)CS2 | – | inactive: 18.1% [at 9.22 µM]
69 | Cc1ccc(C(C)C)c(OCc2nc(-c3nonc3N)no2)c1 | inconclusive: 35.5 µM [inhibitor, single point] | –
70 | Cc1ccc(S(=O)(=O)/N=C2/NC(=O)/C(=C/c3ccccc3)S2)cc1 | inconclusive: 31.6 µM [inhibitor, single point] | –
71 | CC(C)(C)NC(=S)Nc1ccc(Br)cc1 | inconclusive: 14.1 µM [inhibitor, single point] | –
72 | CCOC(=O)c1ccc2c(c1)nc(SCC(=O)c1ccco1)n2CC | – | inactive: 11.6%
73 | CC(C)(C)C(=O)N1CCC(O)(CS(=O)(=O)Cc2ccccc2Cl)CC1 | inconclusive: 5.62 µM [activator, single point] | –
74 | CCCCCCNC(=O)N[C@H](C(=O)NCCC[C@H]1CN2C(=NC[C@H]2C)N1CCC(c1ccccc1)c1ccccc1)C(C)O (some centres undefined) | – | inactive: -31.7% [at 9.22 µM]
